# According to PubChem BioAssay AID504333 (National Center for Advancing Translational Sciences (NCATS), 2011):
# By UniProt entry, the sequences of proteins in these tests, tags left out.
# UniProt Q9UIF8, whole entry: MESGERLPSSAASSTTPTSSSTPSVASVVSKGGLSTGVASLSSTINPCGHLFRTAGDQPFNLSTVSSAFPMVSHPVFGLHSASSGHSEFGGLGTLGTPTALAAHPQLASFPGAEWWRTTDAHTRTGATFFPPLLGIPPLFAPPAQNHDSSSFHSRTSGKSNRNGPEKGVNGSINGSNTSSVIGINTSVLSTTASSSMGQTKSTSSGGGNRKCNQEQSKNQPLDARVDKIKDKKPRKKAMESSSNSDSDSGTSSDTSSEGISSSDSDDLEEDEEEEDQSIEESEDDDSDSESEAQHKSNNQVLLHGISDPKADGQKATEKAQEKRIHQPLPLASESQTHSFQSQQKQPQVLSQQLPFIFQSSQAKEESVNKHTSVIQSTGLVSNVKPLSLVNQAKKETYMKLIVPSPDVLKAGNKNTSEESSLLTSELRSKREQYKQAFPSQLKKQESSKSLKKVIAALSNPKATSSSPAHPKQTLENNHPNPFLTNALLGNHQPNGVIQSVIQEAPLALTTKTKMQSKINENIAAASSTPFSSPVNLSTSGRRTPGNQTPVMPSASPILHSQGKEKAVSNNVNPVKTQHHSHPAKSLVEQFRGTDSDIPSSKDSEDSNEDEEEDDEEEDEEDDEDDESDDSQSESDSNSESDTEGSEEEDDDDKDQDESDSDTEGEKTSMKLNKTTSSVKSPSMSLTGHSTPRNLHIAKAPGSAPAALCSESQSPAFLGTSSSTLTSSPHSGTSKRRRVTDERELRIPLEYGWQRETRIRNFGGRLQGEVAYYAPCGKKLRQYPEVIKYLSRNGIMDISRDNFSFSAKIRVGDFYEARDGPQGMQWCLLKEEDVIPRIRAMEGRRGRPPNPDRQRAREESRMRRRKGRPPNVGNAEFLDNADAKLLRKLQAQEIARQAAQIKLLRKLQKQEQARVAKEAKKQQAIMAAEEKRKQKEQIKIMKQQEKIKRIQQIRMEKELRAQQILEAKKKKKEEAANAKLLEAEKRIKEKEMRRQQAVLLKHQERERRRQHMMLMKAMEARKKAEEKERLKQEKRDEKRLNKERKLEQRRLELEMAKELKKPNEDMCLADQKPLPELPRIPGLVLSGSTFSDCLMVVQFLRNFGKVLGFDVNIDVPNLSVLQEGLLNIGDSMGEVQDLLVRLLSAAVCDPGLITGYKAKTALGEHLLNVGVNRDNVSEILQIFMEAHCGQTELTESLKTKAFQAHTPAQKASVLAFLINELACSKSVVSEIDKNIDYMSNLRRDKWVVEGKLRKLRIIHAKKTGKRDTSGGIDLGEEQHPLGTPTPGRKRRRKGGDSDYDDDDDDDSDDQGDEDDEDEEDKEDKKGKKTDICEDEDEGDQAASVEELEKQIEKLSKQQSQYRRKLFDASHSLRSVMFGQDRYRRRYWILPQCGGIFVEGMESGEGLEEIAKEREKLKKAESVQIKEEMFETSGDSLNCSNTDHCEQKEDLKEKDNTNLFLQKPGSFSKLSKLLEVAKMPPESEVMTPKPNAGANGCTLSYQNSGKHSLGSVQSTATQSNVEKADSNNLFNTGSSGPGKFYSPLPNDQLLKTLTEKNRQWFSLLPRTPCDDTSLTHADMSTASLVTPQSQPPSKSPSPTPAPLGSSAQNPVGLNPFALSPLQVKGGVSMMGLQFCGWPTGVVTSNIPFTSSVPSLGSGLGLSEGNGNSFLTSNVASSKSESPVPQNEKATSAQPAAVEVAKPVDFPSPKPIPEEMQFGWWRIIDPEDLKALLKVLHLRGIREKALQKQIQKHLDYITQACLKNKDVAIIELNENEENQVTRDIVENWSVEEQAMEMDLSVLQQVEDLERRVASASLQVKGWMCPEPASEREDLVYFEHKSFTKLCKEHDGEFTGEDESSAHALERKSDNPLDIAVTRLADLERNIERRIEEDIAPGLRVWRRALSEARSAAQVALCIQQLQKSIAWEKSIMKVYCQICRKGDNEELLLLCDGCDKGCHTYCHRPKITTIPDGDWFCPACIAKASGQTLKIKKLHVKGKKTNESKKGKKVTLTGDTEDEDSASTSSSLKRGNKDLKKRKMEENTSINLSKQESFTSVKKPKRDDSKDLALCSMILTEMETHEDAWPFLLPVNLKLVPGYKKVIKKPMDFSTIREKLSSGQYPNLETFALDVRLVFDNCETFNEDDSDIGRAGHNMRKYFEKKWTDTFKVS
# About 16,000 (4.4%) of roughly 360,000 compounds were called active. Listed are the inconclusive results; actives and inactives stand elsewhere. The call rests on the fitted dose curve; in most records, active means well fitted inhibition curve with a large enough effect; inconclusive means small, poorly fitted or top-dose-only effect; inactive means no such curve, though single readings can be large or run the other way. Some of these compounds have results that are not shown, active ones among them.
# Molecular target: Bromodomain adjacent to zinc finger domain protein 2B (Homo sapiens) (UniProt Q9UIF8)
# Assay: qHTS Assay for Inhibitors of BAZ2B; further: nearly all actives have a fitted effect of over 60% in size
# Settings: AlphaScreen BAZ2B-H3K14Ac peptide displacement
# Potency means the concentration at half of the fitted maximal effect.
row,SMILES,Potency
1,COc1cccc(C(=O)NCC2(N3CCOCC3)CCCCC2)c1,inconclusive: 89.1 µM
